Measurements reported in PubChem BioAssay AID504834 (National Center for Advancing Translational Sciences (NCATS), 2011).
Screen size: about 320,000 compounds; about 22,000 (6.9%) were called active. The inconclusive results got no clear call from the source; some entries with a clear call stand among them for comparison. Calls follow the shape of the dose curve; as a rule, active = well fitted inhibition curve with a large enough effect; inconclusive = small, poorly fitted or top-dose-only effect, or another doubt; inactive = no such curve, though single readings can be large or run the other way. Potencies beside an inconclusive call are fits to weak or partial responses and may not hold up.

Experiment: Primary qHTS for delayed death inhibitors of the malarial parasite plastid, 96 hour incubation
Conditions: P. falciparum luciferase reporter growth; series mostly up to 28.7 µM; activity change, negative = inhibition: at the top concentration
How it was run: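 Erythrocytes infected with luciferase-expressing P. falciparum were dispensed at 2% hematocrit and 0.05% parasitemia (final), then incubated with compounds 96 hours at 37 C in 5% CO2. Luminescence after detection reagent addition reported growth.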
% is scaled to controls: 0 for no effect and ±100 for the full control effect; potency is read from the fitted curve at half-maximal effect.

SMILES	Potency	activity change, negative = inhibition
O=C(Nc1ccc2oc(-c3cccc4ccccc34)nc2c1)c1ncn[nH]1	inconclusive: 11.7 µM [inhibitor, single point]	–
COc1cc(CN2CCNC(=O)C2CC(=O)N(C)Cc2ncc[nH]2)cc(OC)c1 (centres undefined)	inconclusive: 18.5 µM [inhibitor, single point]	–
O=C(NNC1=NC2(CCCC2)Cc2ccccc21)c1cccnc1	–	inactive: 33.8%
CC1CCCN(C(=O)CN2CCC(c3nc4ccc(Cl)cc4[nH]3)CC2)C1 (centres undefined)	inconclusive: 11.7 µM [inhibitor, single point]	–
COc1cccc(C(=O)NCC(=O)NCc2cc(=O)n(C)c(=O)n2C)c1	inconclusive: 20.8 µM [inhibitor, partial curve, poor fit]	–
CN(C(=O)c1ccccc1OCc1ccc(Cl)cc1)c1ccccc1	inconclusive: 18.5 µM [inhibitor, single point]	–
Cc1ccc2c(c1)C1CN(C)CCC1N2C(=O)c1cccc(S(=O)(=O)N2CC(C)CC(C)C2)c1 (centres undefined)	active: 13.1 µM	–
Cc1ccc(C(=O)NNC(=O)c2ccc(NS(=O)(=O)c3cccs3)cc2)s1	inconclusive: 18.5 µM [inhibitor, single point]	–
Cc1ccc(CNC(=O)CS(=O)Cc2nc(-c3ccccc3F)oc2C)cc1 (centres undefined)	–	inactive: 30.1%
O=C(Nc1nnc(-c2ccccc2Cl)s1)c1ccccc1F	–	inactive: -21.4%
Cc1ccc(Nc2c(-c3ccc(N(C)C)cc3)nc3ncccn23)cc1	inconclusive: 13.1 µM [inhibitor, partial curve, poor fit]	–
C/C(=N\NC(=O)c1cc2ccccc2cc1O)c1cc2ccccc2o1	inconclusive: 8.28 µM [inhibitor, partial curve]	–
Cc1cccc(CN(C)C)c1OC(=O)N(C)C	active: 5.86 µM	–
O=C(C[n+]1cc(-c2ccccc2)n2c1CCC2)Nc1nc(-c2ccc(F)cc2)cs1	active: 10.4 µM	–
Clc1ccc(-c2nnc(-c3ccccc3)o2)cn1	–	inactive: 34%
CCCCCCC(=O)Oc1ccc(N2C(=O)CCC2=O)cc1	inconclusive: 20.8 µM [inhibitor, single point]	–
CCc1ccc(OCC(=O)OCC(=O)c2c(N)n(C)c(=O)n(C)c2=O)cc1	inconclusive: 4.15 µM [inhibitor, single point]	–
COc1ccc(N(C(=O)Cn2cnc3ccccc32)C(C(=O)NC2CCCCC2)c2ccccc2)cc1 (centres undefined)	inconclusive: 11.7 µM [inhibitor, single point]	–
COCC(=O)N1CCC(Oc2ccc(C(=O)NC3Cc4ccccc4C3)cc2)CC1	active: 10.4 µM	–
O=C(c1ccco1)N1CCN(c2nc3ccccc3n3nnnc23)CC1	inconclusive: 10.4 µM [inhibitor, partial curve]	–
CCCSc1ccc([C@@H]2[C@H]3C(=O)N(CC)C(=O)[C@H]3[C@]3(C(=O)OC)CCCCN23)cc1OC	active: 11.7 µM	–
CCc1ccc(NC(=O)C2CCN(S(=O)(=O)c3c(C)noc3/C=C/N(C)C)CC2)cc1	inconclusive: 10.4 µM [inhibitor, single point]	–
O=S(=O)(Nc1ccccn1)c1cnc(Cl)c(Br)c1	inconclusive: 4.65 µM [inhibitor, single point]	–

SMILES	Potency	activity change, negative = inhibition
Cc1cc(C)nc(SCC(=O)N(C)CC(=O)Nc2c(Cl)cccc2Cl)n1	–	inactive: 9.64%
CC1CCN(c2ccc([N+](=O)[O-])cc2C(N)=O)CC1	inconclusive: 0.522 µM [inhibitor, full curve]	–
Cc1ccc2c(c1)nnn2C1CCN(S(=O)(=O)c2ccc(C(=O)N(C)C3CCCCC3)cc2)CC1	inconclusive: 10.4 µM [inhibitor, single point]	–
COc1ccc(-c2cc(C)no2)cc1S(=O)(=O)NCc1ccc(OC(C)C)cc1	active: 10.4 µM	–
COc1cc(NC(=O)c2cc(-c3ccc4c(c3)OCO4)on2)cc(OC)c1OC	inconclusive: 14.7 µM [inhibitor, single point]	–
O=C(CSc1ccccn1)Nc1ccc(Cl)c([N+](=O)[O-])c1	inconclusive: 16.5 µM [inhibitor, partial curve, poor fit]	–
Cc1ccc(-c2nnc(CSc3nc(C)nc4sc(C)c(C)c34)o2)cc1	inconclusive: 4.15 µM [inhibitor, partial curve, poor fit]	–
CC(C)CN(CC(C)C)C(=O)c1cc(S(=O)(=O)N2CCCCC2)c[nH]1	inconclusive: 18.5 µM [inhibitor, single point]	–
COc1cccc(C(=O)NC2CCCc3c2cnn3-c2ccc(C)c(C)c2)c1OC (centres undefined)	inconclusive: 18.5 µM [inhibitor, single point]	–
COc1ccccc1CN(C(=O)c1cnccn1)C(C(=O)NC1CCCCC1)c1cc(OC)c(OC)c(OC)c1 (centres undefined)	–	inactive: 16%
COc1ccc(CCN(C)C2CCCN(S(=O)(=O)C(C)C)C2)cc1OC (centres undefined)	inconclusive: 18.5 µM [inhibitor, single point]	–
CCCCc1ccc(NC(=S)N2CCN(C)CC2)cc1	inconclusive: 11.7 µM [inhibitor, single point]	–
CC(C)(C)c1ccc(CNC(=O)C2CCCN2C(=O)Nc2ccccc2)cc1 (centres undefined)	–	inactive: 20.9%
CC(=O)Nc1cc(C(=O)N(C)Cc2ccco2)ccc1Sc1ccc(C)cc1	inconclusive: 9.28 µM [inhibitor, partial curve, poor fit]	–
CCC(=O)N1CCN(c2ccc(NC(=O)c3ccc4ccccc4c3)cc2)CC1	inconclusive: 16.5 µM [inhibitor, single point]	–
CCC(C)NC(=O)CCC(=O)Nc1ccc2nc(N3CCOCC3)cc(C)c2c1 (centres undefined)	inconclusive: 2.33 µM [inhibitor, single point]	–
COC(=O)c1sccc1NC(=O)CNC(=O)c1ccccc1	–	inactive: 30.3%
Cc1cccc(NC(=O)CCSc2nnc(Cc3ccccc3)o2)c1	inconclusive: 13.1 µM [inhibitor, single point]	–
CC(Cc1cccs1)NC(=O)Nc1ccc(Cl)c(Cl)c1 (centres undefined)	inconclusive: 11.7 µM [inhibitor, single point]	–
N#Cc1c(NC(=O)CSc2nc(N)cc(=O)[nH]2)sc2c1CCCC2	–	inactive: 17.2%
COc1ccc(-c2nc(C(N)=O)c3[nH]c(=O)n(-c4ccccc4OC)c3n2)c(OC)c1	inconclusive: 10.4 µM [inhibitor, single point]	–
CCn1cc(S(=O)(=O)CC(=O)Nc2ccc(OC)cc2)c2ccccc21	inconclusive: 0.37 µM [inhibitor, partial curve, poor fit]	–
Cc1nnc(N2CCCC(C(=O)NCc3cccc(F)c3)C2)c2nn(-c3ccccc3)c(C)c12 (centres undefined)	inconclusive: 8.28 µM [inhibitor, partial curve, poor fit]	–

SMILES	Potency	activity change, negative = inhibition
Cc1ccc(-c2nc3[nH]c(=O)cc(NC(=O)C(C)C)n3n2)cc1	active: 0.0828 µM	–
Nc1cc(C(F)(F)F)ccc1NCCc1ccccn1	inconclusive: 13.1 µM [inhibitor, single point]	–
COc1ccc(N/C=C\C(=O)c2ccc3c(c2)OCO3)cc1OC	active: 4.65 µM	–
Cc1ccc(S(=O)(=O)Nc2nc(C)c(NC(=O)Nc3ccc(Cl)cc3Cl)s2)cc1	–	inactive: 87.9%
CCCNC(=O)c1ccc2c(=O)c(O)c(-c3ccc(F)cc3)[nH]c2c1	inconclusive: 16.5 µM [inhibitor, single point]	–
CC(=O)Nc1ccc(S(=O)(=O)NCC(=O)OCC(=O)N2CCc3ccccc32)cc1	inconclusive: 1.47 µM [inhibitor, full curve, poor fit]	–
CCCCCC(=O)c1ccc(O)cc1O	–	inactive: 17.8%
COc1ccccc1NC(=O)C(C)Nc1ccc(C)c(Cl)c1 (centres undefined)	inconclusive: 4.15 µM [inhibitor, single point]	–
c1ccc(Oc2ccc(-c3ccnc4nc(N5CCN(c6ccccc6)CC5)nn34)cc2)cc1	inconclusive: 14.7 µM [inhibitor, partial curve, poor fit]	–
Cc1oc(-c2ccc(Cl)cc2)nc1CS(=O)CC(=O)NC(C)c1ccccc1 (centres undefined)	–	inactive: 71.9%
O=C(NCCSc1c[nH]c2ccccc12)c1ccc2c(c1)OCO2	–	inactive: 15.4%
CCOCCCNC(=S)N1C2CCC1CC(NC(=O)NC13CC4CC(CC(C4)C1)C3)C2 (centres undefined)	active: 3.7 µM	–
Cc1ccccc1OCCSCc1nc2ccccc2[nH]1	active: 13.1 µM	–
O=C(CCc1ccccc1)NC(NC(=S)Nc1ccc(Cl)cc1)C(Cl)(Cl)Cl (centres undefined)	inconclusive: 1.31 µM [inhibitor, partial curve, poor fit]	–
N/C(Cc1ccc([N+](=O)[O-])cc1)=N\OC(=O)CC1CCCCC1	inconclusive: 11.7 µM [inhibitor, single point]	–
CCOC(=O)N1CCN(C(=O)C2CCN(C(=O)c3ccc(C(C)(C)C)cc3)CC2)CC1	–	inactive: -17%
Cc1ccc(NC(=O)OCCN2CCN(Cc3ccccc3)CCC2=O)cc1	–	inactive: -50.6%
Cc1ccccc1N1CC(C(=O)Nc2ccncc2)CC1=O (centres undefined)	active: 13.1 µM	–
Cc1ccc(SCC(=O)NCCC2=CCCCC2)cc1	inconclusive: 0.0037 µM [inhibitor, full curve, poor fit]	–
Cc1ccc(CS(=O)(=O)CCC(=O)O)cc1	inconclusive: 11.7 µM [inhibitor, partial curve, poor fit]	–
CCOc1ccccc1NC(=O)N1CCCC1C(=O)NCc1cccs1 (centres undefined)	inconclusive: 14.7 µM [inhibitor, partial curve, poor fit]	–
Cc1oc2c(CN3CCCCC3)c(O)ccc2c(=O)c1-c1ccc(Cl)cc1	inconclusive: 1.85 µM [inhibitor, full curve, poor fit]	–
CCOC(=O)c1[nH]c(COC(=O)c2ccccc2NC(=O)c2ccco2)c(C(=O)OCC)c1C	inconclusive: 4.15 µM [inhibitor, partial curve, poor fit]	–
